Data as given in the supplement of paper PMC8728848.
The list shows a part of the results.

What was measured:
Assay in all cases: glycan array binding signal (z-score within array); higher = stronger binding
Settings in all cases: glycan notation: IUPAC condensed, linker removed
Fuc(a1-2)Gal = biological target: Fuc(a1-2)Gal
Procedure, shortened: (§1)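 The Consortium for Functional Glycomics database supplied 3228 glycan arrays, of which those lacking an available protein sequence were dropped. The binding signal, a within-array Z-score, was averaged across arrays of the same protein sequence and across linkers. Negative scores can be read as non-binding.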

Fuc(a1-2)Gal(b1-3)GalNAc = biological target: Fuc(a1-2)Gal(b1-3)GalNAc
Procedure, shortened: as §1

[1] = biological target: Fuc(a1-2)Gal(b1-3)GalNAc(a1-3)[Fuc(a1-2)]Gal(b1-4)Glc
Procedure, shortened: as §1

[2] = biological target: Fuc(a1-2)Gal(b1-3)GalNAc(a1-3)[Fuc(a1-2)]Gal(b1-4)GlcNAc
Procedure, shortened: as §1

[3] = biological target: Fuc(a1-2)Gal(b1-3)GalNAc(b1-3)Gal
Procedure, shortened: as §1

[4] = biological target: Fuc(a1-2)Gal(b1-3)GalNAc(b1-3)Gal(a1-4)Gal(b1-4)Glc
Procedure, shortened: as §1

[5] = biological target: Fuc(a1-2)Gal(b1-3)GalNAc(b1-4)[Neu5Ac(a2-3)]Gal(b1-4)Glc
Procedure, shortened: as §1

Fuc(a1-2)Gal(b1-3)GlcNAc = biological target: Fuc(a1-2)Gal(b1-3)GlcNAc
Procedure, shortened: as §1

[6] = biological target: Fuc(a1-2)Gal(b1-3)GlcNAc(b1-2)Man(a1-3)[Fuc(a1-2)Gal(b1-3)GlcNAc(b1-2)Man(a1-6)]Man(b1-4)GlcNAc(b1-4)GlcNAc
Procedure, shortened: as §1

[7] = biological target: Fuc(a1-2)Gal(b1-3)GlcNAc(b1-2)Man(a1-3)[Fuc(a1-2)Gal(b1-3)GlcNAc(b1-2)Man(a1-6)]Man(b1-4)GlcNAc(b1-4)[Fuc(a1-6)]GlcNAc
Procedure, shortened: as §1

[8] = biological target: Fuc(a1-2)Gal(b1-3)GlcNAc(b1-3)Gal(b1-4)Glc
Procedure, shortened: as §1

[9] = biological target: Fuc(a1-2)Gal(b1-3)GlcNAc(b1-3)GalNAc
Procedure, shortened: as §1

[10] = biological target: Fuc(a1-2)Gal(b1-3)GlcNAc(b1-3)[Fuc(a1-2)Gal(b1-3)GlcNAc(b1-6)]GalNAc
Procedure, shortened: as §1

[11] = biological target: Fuc(a1-2)Gal(b1-3)GlcNAc(b1-3)[Fuc(a1-3)[Gal(b1-4)]GlcNAc(b1-6)]Gal(b1-4)Glc
Procedure, shortened: as §1

[12] = biological target: Fuc(a1-2)Gal(b1-3)GlcNAc(b1-3)[Gal(b1-4)GlcNAc(b1-6)]Gal(b1-4)Glc
Procedure, shortened: as §1

[13] = biological target: Fuc(a1-2)Gal(b1-3)GlcNAc(b1-3)[Neu5Ac(a2-6)Gal(b1-4)GlcNAc(b1-6)]Gal(b1-4)Glc
Procedure, shortened: as §1

[14] = biological target: Fuc(a1-2)Gal(b1-3)GlcNAc6S
Procedure, shortened: as §1

[15] = biological target: Fuc(a1-2)Gal(b1-3)[Fuc(a1-4)]GlcNAc
Procedure, shortened: as §1

[16] = biological target: Fuc(a1-2)Gal(b1-3)[Fuc(a1-4)]GlcNAc(b1-2)Man(a1-3)[Fuc(a1-2)Gal(b1-3)[Fuc(a1-4)]GlcNAc(b1-2)Man(a1-3)]Man(b1-4)GlcNAc(b1-4)GlcNAc
Procedure, shortened: as §1

[17] = biological target: Fuc(a1-2)Gal(b1-3)[Fuc(a1-4)]GlcNAc(b1-2)Man(a1-3)[Fuc(a1-2)Gal(b1-3)[Fuc(a1-4)]GlcNAc(b1-2)Man(a1-6)]Man(b1-4)GlcNAc(b1-4)GlcNAc
Procedure, shortened: as §1

[18] = biological target: Fuc(a1-2)Gal(b1-3)[Fuc(a1-4)]GlcNAc(b1-2)Man(a1-3)[Fuc(a1-2)Gal(b1-3)[Fuc(a1-4)]GlcNAc(b1-2)Man(a1-6)]Man(b1-4)GlcNAc(b1-4)[Fuc(a1-6)]GlcNAc(b1-4)[Fuc(a1-6)]GlcNAc
Procedure, shortened: as §1

[19] = biological target: Fuc(a1-2)Gal(b1-3)[Fuc(a1-4)]GlcNAc(b1-2)Man(a1-6)[Fuc(a1-2)Gal(b1-3)[Fuc(a1-4)]GlcNAc(b1-2)Man(a1-3)]Man(b1-4)GlcNAc(b1-4)[Fuc(a1-6)]GlcNAc
Procedure, shortened: as §1

[20] = biological target: Fuc(a1-2)Gal(b1-3)[Fuc(a1-4)]GlcNAc(b1-3)[Fuc(a1-3)[Gal(b1-4)]GlcNAc(b1-6)]Gal(b1-4)Glc
Procedure, shortened: as §1

[21] = biological target: Fuc(a1-2)Gal(b1-3)[Fuc(a1-4)]GlcNAc(b1-3)[Gal(b1-4)GlcNAc(b1-6)]Gal(b1-4)Glc
Procedure, shortened: as §1

[22] = biological target: Fuc(a1-2)Gal(b1-4)Fuc(a1-3)]GlcNAc(b1-2)Man(a1-3)[Fuc(a1-2)Gal(b1-4)[Fuc(a1-3)]GlcNAc(b1-2)Man(a1-6)]Man(b1-4)GlcNAc(b1-4)GlcNAc
Procedure, shortened: as §1

Fuc(a1-2)Gal(b1-4)Glc = biological target: Fuc(a1-2)Gal(b1-4)Glc
Procedure, shortened: as §1

Fuc(a1-2)Gal(b1-4)Glc6S = biological target: Fuc(a1-2)Gal(b1-4)Glc6S
Procedure, shortened: as §1

Fuc(a1-2)Gal(b1-4)GlcNAc = biological target: Fuc(a1-2)Gal(b1-4)GlcNAc
Procedure, shortened: as §1

[23] = biological target: Fuc(a1-2)Gal(b1-4)GlcNAc(b1-2)Man
Procedure, shortened: as §1

[24] = biological target: Fuc(a1-2)Gal(b1-4)GlcNAc(b1-2)Man(a1-3)[Fuc(a1-2)Gal(b1-4)GlcNAc(b1-2)Man(a1-6)]Man(b1-4)GlcNAc(b1-4)GlcNAc
Procedure, shortened: as §1

[25] = biological target: Fuc(a1-2)Gal(b1-4)GlcNAc(b1-2)Man(a1-3)[Fuc(a1-2)Gal(b1-4)GlcNAc(b1-2)Man(a1-6)]Man(b1-4)GlcNAc(b1-4)[Fuc(a1-6)]GlcNAc
Procedure, shortened: as §1

[26] = biological target: Fuc(a1-2)Gal(b1-4)GlcNAc(b1-2)[Fuc(a1-2)Gal(b1-4)GlcNAc(b1-4)]Man(a1-3)[Fuc(a1-2)Gal(b1-4)GlcNAc(b1-2)Man(a1-6)]Man(b1-4)GlcNAc(b1-4)GlcNAc
Procedure, shortened: as §1

[27] = biological target: Fuc(a1-2)Gal(b1-4)GlcNAc(b1-3)Gal(b1-4)GlcNAc
Procedure, shortened: as §1

[28] = biological target: Fuc(a1-2)Gal(b1-4)GlcNAc(b1-3)Gal(b1-4)GlcNAc(b1-2)Man(a1-3)[Fuc(a1-2)Gal(b1-4)GlcNAc(b1-3)Gal(b1-4)GlcNAc(b1-2)Man(a1-6)]Man(b1-4)GlcNAc(b1-4)GlcNAc
Procedure, shortened: as §1

[29] = biological target: Fuc(a1-2)Gal(b1-4)GlcNAc(b1-3)Gal(b1-4)GlcNAc(b1-3)Gal(b1-4)GlcNAc
Procedure, shortened: as §1

[30] = biological target: Fuc(a1-2)Gal(b1-4)GlcNAc(b1-3)GalNAc
Procedure, shortened: as §1

[31] = biological target: Fuc(a1-2)Gal(b1-4)GlcNAc(b1-3)[Fuc(a1-2)Gal(b1-4)GlcNAc(b1-6)]GalNAc
Procedure, shortened: as §1

[32] = biological target: Fuc(a1-2)Gal(b1-4)GlcNAc(b1-3)[Fuc(a1-3)[Gal(b1-4)]GlcNAc(b1-6)]Gal(b1-4)Glc
Procedure, shortened: as §1

[33] = biological target: Fuc(a1-2)Gal(b1-4)GlcNAc(b1-6)GalNAc
Procedure, shortened: as §1

[34] = biological target: Fuc(a1-2)Gal(b1-4)GlcNAc6S
Procedure, shortened: as §1

[35] = biological target: Fuc(a1-2)Gal(b1-4)[Fuc(a1-3)]GlcNAc
Procedure, shortened: as §1

[36] = biological target: Fuc(a1-2)Gal(b1-4)[Fuc(a1-3)]GlcNAc(b1-2)Man(a1-3)[Fuc(a1-2)Gal(b1-4)[Fuc(a1-3)]GlcNAc(b1-2)Man(a1-6)]Man(b1-4)GlcNAc(b1-4)GlcNAc
Procedure, shortened: as §1

[37] = biological target: Fuc(a1-2)Gal(b1-4)[Fuc(a1-3)]GlcNAc(b1-2)Man(a1-3)[Fuc(a1-2)Gal(b1-4)[Fuc(a1-3)]GlcNAc(b1-2)Man(a1-6)]Man(b1-4)GlcNAc(b1-4)[Fuc(a1-6)]GlcNAc
Procedure, shortened: as §1

[38] = biological target: Fuc(a1-2)Gal(b1-4)[Fuc(a1-3)]GlcNAc(b1-2)Man(a1-6)[Fuc(a1-2)Gal(b1-4)[Fuc(a1-3)]GlcNAc(b1-2)Man(a1-3)]Man(b1-4)GlcNAc(b1-4)[Fuc(a1-6)]GlcNAc
Procedure, shortened: as §1

[39] = biological target: Fuc(a1-2)Gal(b1-4)[Fuc(a1-3)]GlcNAc(b1-2)[Fuc(a1-2)Gal(b1-4)[Fuc(a1-3)]GlcNAc(b1-4)]Man(a1-3)[Fuc(a1-2)Gal(b1-4)[Fuc(a1-3)]GlcNAc(b1-2)Man(a1-6)]Man(b1-4)GlcNAc(b1-4)GlcNAc
Procedure, shortened: as §1

B1: Gal 10 (Homo sapiens), Q05315 (protein)
chain: MSLLPVPYTEAASLSTGSTVTIKGRPLVCFLNEPYLQVDFHTEMKEESDIVFHFQVCFGRRVVMNSREYGAWKQQVESKNMPFQDGQEFELSISVLPDKYQVMVNGQSSYTFDHRIKPEAVKMVQVWRDISLTKFNVSYLKR
Fuc(a1-2)Gal
  glycan array binding signal (z-score): 0.577
Fuc(a1-2)Gal(b1-3)GalNAc
  glycan array binding signal (z-score): -0.814
[1]
  glycan array binding signal (z-score): -0.158
[2]
  glycan array binding signal (z-score): -0.772
[3]
  glycan array binding signal (z-score): -0.428
[4]
  glycan array binding signal (z-score): 0.433
[5]
  glycan array binding signal (z-score): 0.173
Fuc(a1-2)Gal(b1-3)GlcNAc
  glycan array binding signal (z-score): 0.29
[6]
  glycan array binding signal (z-score): 0.82
[7]
  glycan array binding signal (z-score): 0.638
[8]
  glycan array binding signal (z-score): -0.548
[9]
  glycan array binding signal (z-score): 0.589
[10]
  glycan array binding signal (z-score): -0.484
[11]
  glycan array binding signal (z-score): 0.274
[12]
  glycan array binding signal (z-score): -0.47
[13]
  glycan array binding signal (z-score): -0.098
[14]
  glycan array binding signal (z-score): 0.923
[15]
  glycan array binding signal (z-score): -1.46
[16]
  glycan array binding signal (z-score): 0.078
[17]
  glycan array binding signal (z-score): 0.861
[18]
  glycan array binding signal (z-score): 0.379
[19]
  glycan array binding signal (z-score): 0.81
[20]
  glycan array binding signal (z-score): 0.276
[21]
  glycan array binding signal (z-score): -0.403
[22]
  glycan array binding signal (z-score): 0.408
Fuc(a1-2)Gal(b1-4)Glc
  glycan array binding signal (z-score): 1.26
Fuc(a1-2)Gal(b1-4)Glc6S
  glycan array binding signal (z-score): -0.411
Fuc(a1-2)Gal(b1-4)GlcNAc
  glycan array binding signal (z-score): -0.051
[23]
  glycan array binding signal (z-score): -0.622
[24]
  glycan array binding signal (z-score): 0.432
[25]
  glycan array binding signal (z-score): 0.095
[26]
  glycan array binding signal (z-score): 0.354
[27]
  glycan array binding signal (z-score): -0.5
[28]
  glycan array binding signal (z-score): -0.302
[29]
  glycan array binding signal (z-score): -0.692
[30]
  glycan array binding signal (z-score): 0.525
[31]
  glycan array binding signal (z-score): 0.169
[32]
  glycan array binding signal (z-score): -0.852
[33]
  glycan array binding signal (z-score): 1.5
[34]
  glycan array binding signal (z-score): -0.512
[35]
  glycan array binding signal (z-score): -0.194
[36]
  glycan array binding signal (z-score): 0.151
[37]
  glycan array binding signal (z-score): -0.642
[38]
  glycan array binding signal (z-score): 1.69
[39]
  glycan array binding signal (z-score): 0.81
